The values that follow come from publication PMC12205061.

Like-named read-outs stand apart in the source and are kept apart here. These are yes or no findings as the source states them, for the method shown. Binding seen in cells or lysates may run through a third protein. Some results given as binding are weak or reduced against the parent protein; the word gives no strength.

For test [1], the target named is cell division cycle 27 (CDC27) (human (endogenous in MM.1S)) (UniProt P30260). The test is described as follows: co-IP; anti-CDC27 antibody (rabbit IgG as isotype control) on rProtein A/G beads; whole-cell lysates of MM.1S cells treated with vehicle or OSMI-1; lysates pre-cleared with unprocessed beads; detection by blot.
Test [2] shares this target. The test is described as above. This is another data set of the same source.

As for “p62 (an autophagy-related protein) (from UniProt Q13501 1-440)”, the binding result in test [1] is recorded as “binds”.

B1: O-GlcNAcylation transferase (OGT) (enzyme, UniProt O15294 1-1046)
chain: MASSVGNVADSTEPTKRMLSFQGLAELAHREYQAGDFEAAERHCMQLWRQEPDNTGVLLLLSSIHFQCRRLDRSAHFSTLAIKQNPLLAEAYSNLGNVYKERGQLQEAIEHYRHALRLKPDFIDGYINLAAALVAAGDMEGAVQAYVSALQYNPDLYCVRSDLGNLLKALGRLEEAKACYLKAIETQPNFAVAWSNLGCVFNAQGEIWLAIHHFEKAVTLDPNFLDAYINLGNVLKEARIFDRAVAAYLRALSLSPNHAVVHGNLACVYYEQGLIDLAIDTYRRAIELQPHFPDAYCNLANALKEKGSVAEAEDCYNTALRLCPTHADSLNNLANIKREQGNIEEAVRLYRKALEVFPEFAAAHSNLASVLQQQGKLQEALMHYKEAIRISPTFADAYSNMGNTLKEMQDVQGALQCYTRAIQINPAFADAHSNLASIHKDSGNIPEAIASYRTALKLKPDFPDAYCNLAHCLQIVCDWTDYDERMKKLVSIVADQLEKNRLPSVHPHHSMLYPLSHGFRKAIAERHGNLCLDKINVLHKPPYEHPKDLKLSDGRLRVGYVSSDFGNHPTSHLMQSIPGMHNPDKFEVFCYALSPDDGTNFRVKVMAEANHFIDLSQIPCNGKAADRIHQDGIHILVNMNGYTKGARNELFALRPAPIQAMWLGYPGTSGALFMDYIITDQETSPAEVAEQYSEKLAYMPHTFFIGDHANMFPHLKKKAVIDFKSNGHIYDNRIVLNGIDLKAFLDSLPDVKIVKMKCPDGGDNADSSNTALNMPVIPMNTIAEAVIEMINRGQIQITINGFSISNGLATTQINNKAATGEEVPRTIIVTTRSQYGLPEDAIVYCNFNQLYKIDPSTLQMWANILKRVPNSVLWLLRFPAVGEPNIQQYAQNMGLPQNRIIFSPVAPKEEHVRRGQLADVCLDTPLCNGHTTGMDVLWAGTPMVTMPGETLASRVAASQLTCLGCLELIAKNRQEYEDIAVKLGTDLEYLKKVRGKVWKQRISSPLFNTKQYTMELERLYLQMWEHYAAGNKPDHMIKPVEVTESA
In the case of B1, the binding entry in test [2] is “binds”.
